Measured data: PubChem BioAssay AID1224831 (NIAID, 2016)
Screen: 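Confirming genome-wide hits on LPS-triggered TNF-alpha induction with independent siRNA sequences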 (follow-up of hits). Cell system: human THP-1 B5 monocytic leukaemia cells carrying a TNF promoter luciferase reporter, made macrophage-like with PMA. Reagent: single siRNA against human genes, 50 nM. Duration: about 68 h of knock-down, then 4 h LPS. Conditions: LPS (Salmonella minnesota, TLR-grade) at 10 ng/ml for 4 h; PMA 5 ng/ml present during knock-down. Read-out: 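TNF promoter reporter read as dual luciferase ratio after 4 h LPS, normalised per plate to its median, given as replicate mean robust z-score per siRNA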. Scale: TNF reporter z-score: higher = stronger LPS-induced TNF reporter signal; z-score, median over gene's siRNAs: higher = stronger TNF reporter signal across the gene's siRNAs. Rule for the call: 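Two-sided call: reduced or raised TNF reporter signal counts as active once mean z reaches about -1 or below, or about 1.5 or above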. Meaning of the calls: active = changed TNF reporter (either direction); inactive = little change.
In all, the deposit lists about 3,500 reagents; this is a part drawn at random. Of all reagents, 731 (21%) are marked active. 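Active means either lowered or raised reporter signal; the gene-median score did not drive the per-siRNA calls.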 A number with no mark means an inactive call. Reagents against one gene are numbered here.

| gene | reagent no. | TNF reporter z-score, replicate mean | z-score, median over gene's siRNAs |
| --- | --- | --- | --- |
| MRM3 | 1 | 0.21 | 0.195 |
| MRM3 | 2 | -1.1 (active) | 0.195 |
| MRM3 | 3 | 0.77 | 0.195 |
| MRM3 | 4 | -0.6 | 0.195 |
| MRM3 | 5 | 0.18 | 0.195 |
| MRM3 | 6 | 1.44 | 0.195 |
| DDR2 | 1 | -1.03 (active) | 0.37 |
| DDR2 | 2 | 0.31 | 0.37 |
| DDR2 | 3 | 0.65 | 0.37 |
| DDR2 | 4 | 2.4 (active) | 0.37 |
| DDR2 | 5 | 0.43 | 0.37 |
| DDR2 | 6 | -0.38 | 0.37 |
| MTBP | 1 | 3.67 (active) | 0.76 |
| MTBP | 2 | 1.04 | 0.76 |
| MTBP | 3 | -0.78 | 0.76 |
| MTBP | 4 | 0.47 | 0.76 |
| MTBP | 5 | 0.48 | 0.76 |
| MTBP | 6 | 1.07 | 0.76 |
| KCNH8 | 1 | 0.82 | 0.445 |
| KCNH8 | 2 | 1.06 | 0.445 |
| KCNH8 | 3 | 0 | 0.445 |
| KCNH8 | 4 | 0.07 | 0.445 |
| KCNH8 | 5 | 0.02 | 0.445 |
| KCNH8 | 6 | 1.01 | 0.445 |
| ULBP1 | 1 | -0.07 | 0.09 |
| ULBP1 | 2 | -0.69 | 0.09 |
| ULBP1 | 3 | 0.59 | 0.09 |
| ULBP1 | 4 | 0.25 | 0.09 |
| ULBP1 | 5 | -0.33 | 0.09 |
| ULBP1 | 6 | 1.11 | 0.09 |
| MARK1 | 1 | 0.82 | -0.285 |
| MARK1 | 2 | -0.27 | -0.285 |
| MARK1 | 3 | -1.96 (active) | -0.285 |
| MARK1 | 4 | -0.3 | -0.285 |
| MARK1 | 5 | -0.69 | -0.285 |
| MARK1 | 6 | -0.11 | -0.285 |
| CEACAM18 | 1 | 0.68 | 1.09 |
| CEACAM18 | 2 | -1.17 (active) | 1.09 |
| CEACAM18 | 3 | 1.15 | 1.09 |
| CEACAM18 | 4 | 1.25 | 1.09 |
| CEACAM18 | 5 | 3.45 (active) | 1.09 |
| CEACAM18 | 6 | 1.03 | 1.09 |
| OASL | 1 | 1.76 (active) | 0.295 |
| OASL | 2 | -1.29 (active) | 0.295 |
| OASL | 3 | 0.83 | 0.295 |
| OASL | 4 | 0.34 | 0.295 |
| OASL | 5 | 0.25 | 0.295 |
| OASL | 6 | 0.15 | 0.295 |
| C2CD2L | 1 | 0.76 | 1.03 |
| C2CD2L | 2 | -0.37 | 1.03 |
| C2CD2L | 3 | 3.09 (active) | 1.03 |
| C2CD2L | 4 | 1.01 | 1.03 |
| C2CD2L | 5 | 1.06 | 1.03 |
| C2CD2L | 6 | 5.93 (active) | 1.03 |
| SLC16A10 | 1 | 2.15 (active) | 0.45 |
| SLC16A10 | 2 | 0.59 | 0.45 |
| SLC16A10 | 3 | -0.18 | 0.45 |
| SLC16A10 | 4 | 2.03 (active) | 0.45 |
| SLC16A10 | 5 | 0.31 | 0.45 |
| SLC16A10 | 6 | -0.14 | 0.45 |
